PubChem BioAssay AID1671195 – Yale University, 2021

Assay: 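Knockdowns that increase or decrease uptake of fluorescent LDL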 (primary screen)
Cells: human Huh7 hepatoma cells
Reagents: siRNA pool against human genes, 18 nM
Timing: about 2 to 2.5 days of knockdown, then 8 h LDL uptake
Treatment: DiI-labelled LDL at 30 µg/ml for 8 h, in lipoprotein-deficient serum medium
Measurement: 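Per-cell DiI-LDL intensity by automated imaging; well means scaled to the plate median and given as a robust z-score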
Reading the numbers: robust z-score: higher = more LDL uptake after knockdown
Rule for the call: 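Active when two or more replicates show a robust z-score above 2 or below -2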
Here is an unselected part of about 22,000 reagents tested. Over the whole deposit, about 1,510 (6.9%) were called active. 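Active includes knockdowns raising or lowering LDL uptake; positive z-scores mean more uptake, negative mean less.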 A number with no mark means an inactive call. No sequences are given here.

no.	gene symbol	robust z-score, replicate 1	robust z-score, replicate 2	robust z-score, replicate 3
1	CCDC157 (coiled-coil domain containing 157)	-0.138	-0.0451	-0.575
2	TMEM116 (transmembrane protein 116)	3.17 (active)	1.68	2.89
3	LOC441928 (retired record)	-0.236	-0.0563	-0.231
4	CTSE (cathepsin E)	1.98 (active)	1.74	2.51
5	FABP3 (fatty acid binding protein 3)	4.48 (active)	2.33	-1.64
6	ITGAV (integrin subunit alpha V)	0.338	-1.02	-1.12
7	ARMC9 (armadillo repeat containing 9)	-1.58	-1.24	-0.77
8	PROZ (protein Z, vitamin K dependent plasma glycoprotein)	-1.01	-1.38	-0.911
9	MSX2 (msh homeobox 2)	0.00763	-0.0798	0.155
10	RIMS3 (regulating synaptic membrane exocytosis 3)	0.321	-0.264	1.91
11	OR2Z1 (olfactory receptor family 2 subfamily Z member 1)	-1.28	-1.23	-1.59
12	NQO1 (NAD(P)H quinone dehydrogenase 1)	-0.126	0.158	0.249
13	GSDMB (gasdermin B)	-0.741	0.56	-1.37
14	DHRS4L2 (dehydrogenase/reductase 4 like 2)	-0.328	0.518	-0.352
15	PYGB (glycogen phosphorylase B)	-0.858	-0.562	-0.443
16	CHD1 (chromodomain helicase DNA binding protein 1)	1.32	-1.38	-0.132
17	ITGA3 (integrin subunit alpha 3)	0.00423	-0.862	0.335
18	LOC400602 (retired record)	2.51 (active)	1.86	2.18
19	LOC388616 (retired record)	-0.635	-0.264	-0.69
20	PDGFRA (platelet derived growth factor receptor alpha)	0.716	0.369	1.64
21	GRIA3 (glutamate ionotropic receptor AMPA type subunit 3)	-1.29	-0.306	-2.08
22	FIMP1 (fertilization-influencing membrane protein 1)	-0.411	-0.572	0.217
23	OR10C1 (olfactory receptor family 10 subfamily C member 1)	0.916	-0.292	0.191
24	AJAP1 (adherens junctions associated protein 1)	-1.17	-1.08	-0.271
25	CHAD (chondroadherin)	-2.59 (active)	-2.45	-2.03
26	KIAA0930	-0.349	0.683	-0.708
27	FBXL19 (F-box and leucine rich repeat protein 19)	0.292	0.333	0.931
28	CDH19 (cadherin 19)	-0.615	-0.245	-0.196
29	C6orf62 (chromosome 6 open reading frame 62)	-0.0196	0.0351	0.289
30	LOC391717 (retired record)	1.18	1.34	1.14
31	PRRC2A (proline rich coiled-coil 2A)	-0.795	-0.738	-0.0751
32	C2orf81 (chromosome 2 open reading frame 81)	0.202	0.434	0.532
33	KLC3 (kinesin light chain 3)	1.2	-0.356	0.476
34	IRF9 (interferon regulatory factor 9)	0.802	0.147	-0.697
35	FXR2 (FMR1 autosomal homolog 2)	0.602	0.392	0.804
36	MTERF1 (mitochondrial transcription termination factor 1)	-0.246	-0.443	0.215
37	OR5L1 (olfactory receptor family 5 subfamily L member 1)	-0.96	-1.11	-1.05
38	SRPRB (SRP receptor subunit beta)	1.01	-0.0637	0.181
39	CNTFR (ciliary neurotrophic factor receptor)	-0.769	-0.0575	-0.385
40	LOC441483 (retired record)	-1.48	-1.42	-1.48
41	VAV3 (vav guanine nucleotide exchange factor 3)	0.54	0.512	0.505
42	PIP (prolactin induced protein)	0.00667	-0.223	-0.753
43	ZCWPW1 (zinc finger CW-type and PWWP domain containing 1)	-1.62	-1.21	-0.49
44	CCL28 (C-C motif chemokine ligand 28)	0.385	1.36	-0.118
45	GPC2 (glypican 2)	-0.465	-0.387	-0.398
46	SNAI3 (snail family transcriptional repressor 3)	-0.506	-0.625	-0.732
47	PPP1R11 (protein phosphatase 1 regulatory inhibitor subunit 11)	-1.54	-0.52	-2.1
48	CWC25 (CWC25 spliceosome associated protein)	0.218	-0.444	0.629
49	OR5D14 (olfactory receptor family 5 subfamily D member 14)	-0.575	-0.998	-0.487
50	ZSCAN18 (zinc finger and SCAN domain containing 18)	-1.36	-1.19	-0.792
51	PEX11B (peroxisomal biogenesis factor 11 beta)	-0.716	-0.421	-1.87
52	CD177 (CD177 molecule)	0.457	-0.492	-0.659
53	TBX21 (T-box transcription factor 21)	0.558	1.2	1.32
54	TMED1 (transmembrane p24 trafficking protein 1)	-0.0151	1.8	1.19
55	RPL37P6 (ribosomal protein L37 pseudogene 6)	0.469	0.137	0.324
56	MMRN1 (multimerin 1)	-0.866	-0.00171	-0.0108
57	RBMS1 (RNA binding motif single stranded interacting protein 1)	-0.944	0.0322	-1.04
58	PRNP (prion protein (Kanno blood group))	-1.31	1.1	-1.45
59	C3orf52 (chromosome 3 open reading frame 52)	-1.67	-1.28	-1.67
60	BCAR3 (BCAR3 adaptor protein, NSP family member)	0.0457	-0.117	-1.33
61	GPR101 (G protein-coupled receptor 101)	-0.376	-0.0539	-0.262
62	AP3M2 (adaptor related protein complex 3 subunit mu 2)	-1.64	1.92	-0.0952
63	ZDHHC1 (zDHHC palmitoyltransferase 1)	-0.523	-0.201	-1.46
64	GGT1 (gamma-glutamyltransferase 1)	0.477	-0.35	0.603
65	EBAG9 (estrogen receptor binding site associated antigen 9)	0.239	-0.334	0.618
66	PCDHB5 (protocadherin beta 5)	-0.289	-0.499	-0.0667
67	AIF1L (allograft inflammatory factor 1 like)	0.8	0.604	-0.286
68	LOC441283 (retired record)	0.0909	-0.304	-0.48

In a second layout: entries from further up
OR5L1 (olfactory receptor family 5 subfamily L member 1): robust z-score, replicate 1 = -0.96; robust z-score, replicate 2 = -1.11; robust z-score, replicate 3 = -1.05
SRPRB (SRP receptor subunit beta): robust z-score, replicate 1 = 1.01; robust z-score, replicate 2 = -0.0637; robust z-score, replicate 3 = 0.181
CNTFR (ciliary neurotrophic factor receptor): robust z-score, replicate 1 = -0.769; robust z-score, replicate 2 = -0.0575; robust z-score, replicate 3 = -0.385
LOC441483 (retired record): robust z-score, replicate 1 = -1.48; robust z-score, replicate 2 = -1.42; robust z-score, replicate 3 = -1.48
VAV3 (vav guanine nucleotide exchange factor 3): robust z-score, replicate 1 = 0.54; robust z-score, replicate 2 = 0.512; robust z-score, replicate 3 = 0.505
